Measured values taken from article PMC8187409, “The zinc-finger protein Red1 orchestrates MTREC submodules and binds the Mtl1 helicase arch domain” (Nature Communications, 2021).
These are yes or no findings as the source states them, for the method shown. Some results given as binding are weak or reduced against the parent protein; the word gives no strength. For some assays here: Where a sequence is shown, tags or fusion partners need not be part of it.

Legend:
[1] = target: T1, Ars2 (spArs2), full length (S. pombe) (UniProt O94326); assay: two-hybrid; yeast three-hybrid: bridging protein with N-terminal NLS from a modified pRS426 plasmid (ADH1 promoter) or the empty plasmid as control; growth on SDC-Leu-Trp-Ura-His
T1 sequence: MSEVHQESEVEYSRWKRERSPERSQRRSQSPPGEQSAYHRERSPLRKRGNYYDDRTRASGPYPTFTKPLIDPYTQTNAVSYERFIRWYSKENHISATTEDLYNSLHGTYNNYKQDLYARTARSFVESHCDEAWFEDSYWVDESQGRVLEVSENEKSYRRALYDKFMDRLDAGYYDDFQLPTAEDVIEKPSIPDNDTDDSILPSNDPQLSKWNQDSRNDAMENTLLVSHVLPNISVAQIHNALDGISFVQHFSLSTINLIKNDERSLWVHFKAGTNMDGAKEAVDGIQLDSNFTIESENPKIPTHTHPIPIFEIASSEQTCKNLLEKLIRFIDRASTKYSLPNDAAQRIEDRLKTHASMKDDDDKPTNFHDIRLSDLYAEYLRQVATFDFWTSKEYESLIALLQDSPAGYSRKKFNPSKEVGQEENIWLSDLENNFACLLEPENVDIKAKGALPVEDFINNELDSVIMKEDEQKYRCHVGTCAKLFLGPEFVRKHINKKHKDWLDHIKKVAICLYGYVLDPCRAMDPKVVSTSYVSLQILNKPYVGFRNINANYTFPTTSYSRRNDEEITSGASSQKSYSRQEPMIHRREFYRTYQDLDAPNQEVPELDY

[2] = target: Mmi1 (spMmi1), full length (S. pombe) (UniProt O74958); assay: two-hybrid; Gal4 BD and AD fusions (pGBKT7/pGADT7 or pG4BDN22/pG4ADHAN111) co-transformed into PJ69-4A; growth after 3 days at 30 °C on SDC-His (weak), SDC-His + 1 mM 3-AT (medium), SDC-Ade (strong)
[3] = target: T2, Pab2 (spPab2), full length (S. pombe) (UniProt O14327); assay: as above
T2 sequence: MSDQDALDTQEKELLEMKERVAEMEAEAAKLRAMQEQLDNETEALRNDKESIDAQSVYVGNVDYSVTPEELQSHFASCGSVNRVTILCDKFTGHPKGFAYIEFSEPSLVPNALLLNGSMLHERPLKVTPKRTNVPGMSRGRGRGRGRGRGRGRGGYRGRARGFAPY

[4] = target: T3, Red1 (spRed1), full length (S. pombe) (UniProt Q9UTR8); assay: as above
T3 sequence: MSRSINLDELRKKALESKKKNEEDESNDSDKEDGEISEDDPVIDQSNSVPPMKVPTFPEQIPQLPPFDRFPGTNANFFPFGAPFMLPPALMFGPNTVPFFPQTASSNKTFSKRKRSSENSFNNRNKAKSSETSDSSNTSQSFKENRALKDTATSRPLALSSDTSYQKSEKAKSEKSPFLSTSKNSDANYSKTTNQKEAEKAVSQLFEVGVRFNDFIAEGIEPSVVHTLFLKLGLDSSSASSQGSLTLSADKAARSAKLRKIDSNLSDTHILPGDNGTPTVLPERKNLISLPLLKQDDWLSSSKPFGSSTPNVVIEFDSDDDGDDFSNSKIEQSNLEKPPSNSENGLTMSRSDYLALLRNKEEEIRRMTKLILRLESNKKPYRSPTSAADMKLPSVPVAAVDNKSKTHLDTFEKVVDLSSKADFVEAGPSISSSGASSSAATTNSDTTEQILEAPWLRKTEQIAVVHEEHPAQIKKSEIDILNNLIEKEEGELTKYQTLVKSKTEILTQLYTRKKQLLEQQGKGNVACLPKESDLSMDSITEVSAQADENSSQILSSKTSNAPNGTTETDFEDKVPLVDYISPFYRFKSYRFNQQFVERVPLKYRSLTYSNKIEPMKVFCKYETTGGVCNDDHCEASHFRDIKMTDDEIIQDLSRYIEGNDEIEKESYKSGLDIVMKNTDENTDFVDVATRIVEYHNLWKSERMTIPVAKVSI

[5] = target: T4, GST-tagged spRed1 peptide (D33A, E35A) (S. pombe); assay: pull-down; GST pull-down: bait with 1.5 molar excess of prey, 20 mM HEPES pH 7.5, 150 mM NaCl (or higher, up to 600 mM or 1.5 M in the washes), 5% glycerol, 0.1% NP-40, 4 °C, glutathione agarose; SDS-PAGE, Coomassie; both purified
T4 sequence: SDKEAGAISEDDP

B1: CBC complex (Cbc1 fused to Gal4 AD with untagged Cbc2) (complex, UniProt O14253 1-780; Q9P383 1-182)
chain 1: MSSYRGSTRPRKRTREGENYGFRPHRGNSQELLAARIKKDITFLADPRGNSVAADDINYVAMSLSREANDPETISTILDCIQTTAFIIPVKIPHLATLIIRASLRVPLILEKAAAYFCLQYFTNLNSFLYYEAKVDLRMLICMSFALQPGTLKPLFSLLADAISKETKPSVWGDNFLRIILINLPYFIAANNDLGKKDFANEILDQCEIYVRHRKSSITLSNPLSIHDNLSEEELDLLYKQLILSRENDFTFPYISQPWKFFESDFVHIVPVSPSIPEWTFQPTPQQNELPSFKRFFELFNNFEIRTTPDASDVAASIFRDISVDVINHLEFNRVEAAQVLTDLDVYFTYKTFALRGTPVNELPNLDPSESRWKAEDIIVEAVLGELLGSQNTTYKPVYYHSLLIECCRIAPKILAPTFGRVIRLMYTMSSDLPLQTLDRFIDWFSHHLSNFNFHWKWNEWIPDVELDDLHPKKVFMRETITRELILSYYTRISDSLPEELRCLLGEQPSGPNFVYENETHPLYQQSSQIIEALRLHKPLEELDIILQSEEIQNSETSAVRLVMSCAYSLGSRSFSHALNVFEKHLNTLKHFSRKSLDSEIEVVDELFSFWKLQPFNAVMWLDKMLNYSIISITSIIEWLIKQDVTIWSRSYTWSLVNTTFNKLAARLRRSVSNKEDSSLINEANEEKEIVTNLLLSALRALISENAENIWVSHWLNLMLKYVESNFLSVKKDTIEEANEPVQENTSEEQEDTKMQPVDAVDEQPSENNQTAADATNEEK
chain 2: MASITRLDAVSPYLIRRFKNDLRALDAVKQSNCVYVGNLSFYTTEEQIYALFSKCGEIRRIIMGVDRFTKTPCGFCFVEYFENQDALDSLKYISRTSLDERIIRADLDHGYEEGRQYGRGASGGQVRDEMREEFDPGRGGYAKNRQPTSSRQLANYSGISSAPLGSSLELQSNPRYNRWKKN
[1]
  binding: binds

B2: Mmi1 (spMmi1), full length (protein, UniProt O74958 1-488)
chain: MSNTNFSTSRSSKSIPELPNLEALRSLWPPPSLNESGDTRSVWTTHTGEPVASSVLSTSGSNNFSSPLKRPAPESHDAPIGRRLMVDDPRLIKHGKYDFSRHCTDYGHSYEWPYFRSLRRESMLYHTSGSYPESQPPYSSYSTDAPHYYHAGSESSAYYDSRSRLHGIQPPPKRRTLSPPPRRLADPVVVGSSRYVEEEVYRRPPYTLASEVPSSASAYQAGYSSYPVRSSPQLSHEDTRHGIASSGSTRYPFVPANTRASHSPSLLEPYAHSLPSSVAPVGAYPEKSSYLLSNSSNDSASRKEKPKARASTPPPLNFSRASEHRNEKGERISMINPRVVLDENGISHRSRYFIMLCDNETAIAHAKKTSIWAVKKDSSKRISDAYKKASVYFIFVAQQTYNALGYAQVVSDLNSTELPFWSDSSHAGGVRIKWIKTCNLFSAEISEIVSHMDHGSEARDGMEMMYDEGSRLCTLINYAIMKRIGRDR
[2]
  binding: binds
[3]
  binding: binds

B3: Pla1 (spPla1), canonical poly(A) polymerase, full length (enzyme, UniProt Q10295 1-566)
chain: MTTKQWGITPPISTAPATEQENALNTALINELKNQNLFESPAESEKRVKVLDELQQITTEFVKKVSLAKHMNEKMANEAGGKIFTYGSYRLGVYGPGSDIDTLVVVPKHVSRDNFFQDLEPMLREREEVTDLAAVPDAYVPIIKFKFLGISIDLIFARLSVPRVPRDLELSDNNLLKGVEERCVLSLNGTRVTDQILQLVPNRAVFKHALRAIKFWAQRRAIYANVVGFPGGVAWAMMVARICQLYPNAVSSVIVAKFFRILHQWNWPQPILLKPIEDGPLQVRIWNPKLYPSDKAHRMPIITPAYPSMCATHNITLSTQTIILREMVRAGEIADQIMVKALPWSALFQKHDFFHRYKHYLTITAAAKTAEAQLKWAGLVESKLRHLVTRLELVDAIALAHPFNKGFDKVYNCSSEEEAQQVASGVTLEVAYESTDHEKLANDTVNEEKADNTESKADGSENGEKQIFPVYTTTCYIGLELEKKKGHPIKRLDISWPTQEFYELCKKWDKYDDTLMNVFIKNTKNTALPDEVFEPGEERPKATKKRSTADTAHSTEQLKRQKVSTA
[4]
  binding: binds

B4: full-length spArs2 (in vitro binding) (protein, UniProt O94326 1-609)
chain: T1 sequence
[5]
  binding: no binding
